Reference: patent publication US20100190737A1, “COMPOSITIONS COMPRISING INOSINE AND OROTIC ACID AND METHODS OF USE THEREOF FOR THE TREATMENT OF CERTAIN HEART CONDITIONS AND ENHANCEMENT OF WORK CAPACITY” (NUTRITIONAL RESEARCH GROUP LLC, priority 2009, published 2010)

Key:
white rats = test: Long-term (6 months) work capacity in trained and non-trained rats; details: INO 25 mg/kg, PO 50 mg/kg
Description: Seventy two white rats were randomly placed in 6 groups (12 animals each), to test the effectiveness of training and to determine morphological and physiological alterations in the rats. In Group I, control rats were nontrained and not administered either of inosine or the combination of inosine and orotate; Group II comprised non-trained rats to which were administered inosine (25 mg/kg/body weight; Group III comprised non-trained rats to which were administered the combination of inosine plus potassium orotate (25 mg/kg/body weight of inosine and 50 mg/kg/body weight potassium orotate); Group IV comprised trained rats that were not administered either of inosine or the combination of inosine and orotate; Group V comprised trained rats to which was administered inosine alone (25 mg/kg/body weight), and Group VI comprised trained rats to which was administered the combination of inosine plus potassium orotate (25 mg/kg/body weight of inosine and 50 mg/kg/body weight potassium orotate).
Training of rats consisted of their forced swimming in a water bath (28-30° C.) with a weight fixed on their backs (7.5% of the rat body weight). During the first two weeks the animals swam daily for 5-10 minutes, after which we determined the individual maximum time of swimming to exhaustion (i.e. maximum work capacity) for each animal and then calculated the mean maximum time for each group. After 2 weeks these initial maximum work capacity values were used for planning and performing additional swimming training.
The functional condition of the rats at rest was estimated from their work capacity (maximum swimming time), body weight increase, EKG tests, oxygen consumption and sodium and potassium levels in the myocardium in a relatively quiet state. […] Also determined were the amounts of glycogen in the m. quadriceps (quadriceps group of muscles) of the hip, the myocardium and the liver. All the quantitative results obtained were processed with conventional statistical procedures.

[1] = system: rats with experimental aortic stenosis; test: Long term (12 month) experimental aortic stenosis; assay type: in vivo, rat
Description: A 12 month study using 60 white unbred male rats with initial body weights of 110-120 g, divided into four experimental groups, each group with 15 rats. Group I included intact animals (controls); Group II—rats with experimental aortic stenosis (untreated stenosed controls); Group III rats with experimental aortic stenosis given inosine in doses of 25 mg/kg/day; and Group IV rats with experimental aortic stenosis given both inosine and an orotic acid (in the instant study potassium orotate was used, however, as the orotic acid comprises 93-95% percent of any of the orotates, the results achieved are indicative of usage of any of the orotates including the potassium orotate used herein) combination in doses of 25 and 50 mg/kg/day, respectively, intragastrically, using a metal curved tube, beginning from the 45th day after the creation date of the abdominal aortic stenosis, and continuing for 10.5 months. The abdominal aortic stenosis was produced by the method of Beznak, referred to hereinabove, modified by Kogan, referred to above.
During the experimental period the animals in all four groups had regular measurements (recordings) of body weight and the 3-standard lead EKG-ms and 5-plane pericardial vector-cardiograms (VCG). At the beginning and end of the experimental period they also underwent tests for the endurance of a single, dosed physical exercise—forced swimming in a pool at 28-30° C., until maximally exhausted. Specifically, an animal had fixed to its tail a lead weight weighing approximately 7.5% percent of the animal's body weight became submerged due to the inability to continue swimming. At the end of the experimental period, the animals were sacrificed, and their hearts, thymuses, livers, adrenals and thyroids were weighed and their relative weights per 100 g body weight were calculated and recorded. Histological figures of sectioned cardiac muscle stained with hematoxilin-eosin were prepared by Van Hison's technique and examined for any attendant alterations in the normal histology of the heart. During the experiment, (untreated aortic stenosis) 8 of the 15 rats in Group II died, while in Group III (treated stenosis w/inosine) and Group IV (treated stenosis w/inosine and potassium orotate)—only 3 rats in each group died. […] The observed time period wherein the rats could swim were as follows: Groups I animals 45±2.0 minutes; Group II 6.5±2.1 minutes; Group III 16±1.2 minutes; and Group IV 32±4 minutes, respectively. Thus, the group receiving the combination of inosine and potassium orotate performed far better than Group II (untreated stenosis) and had doubled the work capacity of Group III (treated with inosine only). The relative weight of the heart in animals in Groups II, III and IV was higher than in Group I (control group) by 67%, 36% and 56%, respectively. (See Tables 2 A-B). The hearts of Group II animals were in the state of eccentric hypertrophy which explains the higher weight (see FIG. 5). The left ventricular wall in the animals of Group II was 8% thinner than in rats of Group I as a result of the eccentric condition. In rats of Groups III and IV the left ventricular wall was 30% and 46% thicker, respectively, than the rats in group I and they were all in the state of concentric heart hypertrophy.

O=C([O-])c1cc(=O)[nH]c(=O)[nH]1.[K+] [potassium orotate]
Body Weight After 6 mo. (white rats; untrained rats): 286 ± 8.5

OC[C@H]1O[C@@H](n2cnc3c(O)ncnc32)[C@H](O)[C@@H]1O [inosine]
Body weight (g) 1½ months ([1]; 1½ months after surgery (treatment began on the 45th day)): 198 ± 6.0 g
Relative weight of Adrenals ([1]; 12 months after surgery): 11 ± 0.7 mg/100 g
Relative weight of Liver ([1]; 12 months after surgery): 3475 ± 148 mg/100 g
Relative weight of Thymus ([1]; 12 months after surgery): 116 ± 7.5 mg/100 g
Body weight (g) 12 months ([1]; 12 months after surgery, 10.5 months of treatment): 443 ± 12 g
Body Weight After 6 mo. (white rats; trained rats): 290 ± 7.4
Body Weight After 6 mo. (white rats; untrained rats): 280 ± 3.8
